Data as given in the supplement of paper PMC10849652.
Some of the results follow.

Sequences of proteins named here, by UniProt entry; tags and fusion partners are left off. A change or cut given only in a name is not applied to a line headed by its entry.
UniProt P19256, whole entry, looked up: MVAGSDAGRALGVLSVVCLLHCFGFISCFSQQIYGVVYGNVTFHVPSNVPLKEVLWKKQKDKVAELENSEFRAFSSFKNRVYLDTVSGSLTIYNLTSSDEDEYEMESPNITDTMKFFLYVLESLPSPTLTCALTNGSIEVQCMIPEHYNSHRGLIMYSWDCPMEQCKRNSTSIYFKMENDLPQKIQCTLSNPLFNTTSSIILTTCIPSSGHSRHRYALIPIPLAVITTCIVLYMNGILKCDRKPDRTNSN
UniProt P55212: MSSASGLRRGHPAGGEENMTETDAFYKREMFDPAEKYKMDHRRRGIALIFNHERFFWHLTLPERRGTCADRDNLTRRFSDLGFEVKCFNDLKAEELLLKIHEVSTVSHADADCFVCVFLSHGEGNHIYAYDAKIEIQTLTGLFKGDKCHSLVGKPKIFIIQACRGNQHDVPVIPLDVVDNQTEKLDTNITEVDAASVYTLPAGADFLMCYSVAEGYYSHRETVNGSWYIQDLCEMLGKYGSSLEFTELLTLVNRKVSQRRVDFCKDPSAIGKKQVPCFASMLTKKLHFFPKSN
UniProt Q4G0I0: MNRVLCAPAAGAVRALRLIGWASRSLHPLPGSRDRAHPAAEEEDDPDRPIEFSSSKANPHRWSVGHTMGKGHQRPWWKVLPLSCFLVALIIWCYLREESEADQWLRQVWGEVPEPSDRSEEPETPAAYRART
UniProt Q8IUF1: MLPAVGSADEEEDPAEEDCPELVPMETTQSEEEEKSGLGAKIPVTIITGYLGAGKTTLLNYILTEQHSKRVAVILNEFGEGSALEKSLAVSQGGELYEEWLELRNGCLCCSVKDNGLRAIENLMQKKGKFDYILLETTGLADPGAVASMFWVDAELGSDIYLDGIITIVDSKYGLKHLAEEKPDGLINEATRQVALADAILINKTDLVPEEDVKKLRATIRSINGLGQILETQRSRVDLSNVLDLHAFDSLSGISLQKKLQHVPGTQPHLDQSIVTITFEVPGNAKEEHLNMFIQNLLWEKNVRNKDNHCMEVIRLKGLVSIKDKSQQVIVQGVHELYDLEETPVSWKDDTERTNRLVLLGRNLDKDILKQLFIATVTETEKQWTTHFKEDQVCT
UniProt P48509: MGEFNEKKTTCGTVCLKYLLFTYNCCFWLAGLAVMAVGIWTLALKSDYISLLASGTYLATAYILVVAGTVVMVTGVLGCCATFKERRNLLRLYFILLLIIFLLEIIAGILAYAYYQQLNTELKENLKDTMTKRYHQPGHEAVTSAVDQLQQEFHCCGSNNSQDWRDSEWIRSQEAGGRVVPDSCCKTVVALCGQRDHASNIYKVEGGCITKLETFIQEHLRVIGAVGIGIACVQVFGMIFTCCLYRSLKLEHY
UniProt P40227, whole entry, looked up: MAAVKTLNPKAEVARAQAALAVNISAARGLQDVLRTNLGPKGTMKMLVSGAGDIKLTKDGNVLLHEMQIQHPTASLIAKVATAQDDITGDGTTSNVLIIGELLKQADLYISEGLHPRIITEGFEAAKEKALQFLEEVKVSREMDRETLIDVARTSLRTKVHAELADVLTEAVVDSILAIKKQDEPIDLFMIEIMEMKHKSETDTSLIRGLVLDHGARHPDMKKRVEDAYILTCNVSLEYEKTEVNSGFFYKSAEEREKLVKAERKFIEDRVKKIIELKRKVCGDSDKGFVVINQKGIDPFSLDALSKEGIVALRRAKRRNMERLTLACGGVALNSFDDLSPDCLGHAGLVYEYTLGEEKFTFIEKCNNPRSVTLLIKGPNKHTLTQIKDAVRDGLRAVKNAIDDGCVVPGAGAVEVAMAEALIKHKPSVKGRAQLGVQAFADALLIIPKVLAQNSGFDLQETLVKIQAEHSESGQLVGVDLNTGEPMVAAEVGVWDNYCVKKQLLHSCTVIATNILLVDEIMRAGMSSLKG
UniProt P45973, whole entry, looked up: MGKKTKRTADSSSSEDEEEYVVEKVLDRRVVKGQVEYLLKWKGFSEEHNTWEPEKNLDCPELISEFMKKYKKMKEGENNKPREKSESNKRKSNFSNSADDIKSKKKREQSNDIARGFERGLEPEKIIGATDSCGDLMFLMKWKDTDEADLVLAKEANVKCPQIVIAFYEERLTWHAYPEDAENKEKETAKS
UniProt O95810: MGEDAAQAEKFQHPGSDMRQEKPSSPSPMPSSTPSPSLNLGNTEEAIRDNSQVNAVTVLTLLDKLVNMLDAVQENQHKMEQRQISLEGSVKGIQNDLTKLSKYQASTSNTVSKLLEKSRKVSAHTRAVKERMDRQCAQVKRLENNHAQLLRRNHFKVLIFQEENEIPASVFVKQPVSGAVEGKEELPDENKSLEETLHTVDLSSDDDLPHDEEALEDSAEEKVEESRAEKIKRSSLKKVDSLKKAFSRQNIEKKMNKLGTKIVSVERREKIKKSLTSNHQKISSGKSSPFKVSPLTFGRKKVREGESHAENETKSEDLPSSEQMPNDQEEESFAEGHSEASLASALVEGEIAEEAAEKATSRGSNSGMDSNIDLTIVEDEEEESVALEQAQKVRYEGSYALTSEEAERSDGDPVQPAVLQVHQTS
UniProt Q96NT0: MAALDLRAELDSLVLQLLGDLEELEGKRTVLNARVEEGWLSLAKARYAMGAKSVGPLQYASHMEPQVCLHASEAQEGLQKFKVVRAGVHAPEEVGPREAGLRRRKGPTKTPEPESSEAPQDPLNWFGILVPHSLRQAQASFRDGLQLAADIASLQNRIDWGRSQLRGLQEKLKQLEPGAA
UniProt Q9P031: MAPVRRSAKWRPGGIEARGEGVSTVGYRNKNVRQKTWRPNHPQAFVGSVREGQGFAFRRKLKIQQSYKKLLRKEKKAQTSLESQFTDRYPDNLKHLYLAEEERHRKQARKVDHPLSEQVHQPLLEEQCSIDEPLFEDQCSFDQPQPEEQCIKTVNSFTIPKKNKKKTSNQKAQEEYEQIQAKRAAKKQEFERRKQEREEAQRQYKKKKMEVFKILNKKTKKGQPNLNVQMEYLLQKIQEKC
UniProt P15529: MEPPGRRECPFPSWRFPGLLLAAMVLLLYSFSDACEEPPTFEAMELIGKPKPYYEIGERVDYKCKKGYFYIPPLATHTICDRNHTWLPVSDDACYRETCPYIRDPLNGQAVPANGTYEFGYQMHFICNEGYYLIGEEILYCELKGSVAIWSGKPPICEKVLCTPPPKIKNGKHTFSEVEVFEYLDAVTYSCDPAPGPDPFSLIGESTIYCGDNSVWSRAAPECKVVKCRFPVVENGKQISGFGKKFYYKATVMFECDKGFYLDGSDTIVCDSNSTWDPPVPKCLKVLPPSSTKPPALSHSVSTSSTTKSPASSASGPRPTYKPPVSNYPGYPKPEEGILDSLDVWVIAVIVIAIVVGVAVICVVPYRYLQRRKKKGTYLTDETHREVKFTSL
UniProt Q96ER9: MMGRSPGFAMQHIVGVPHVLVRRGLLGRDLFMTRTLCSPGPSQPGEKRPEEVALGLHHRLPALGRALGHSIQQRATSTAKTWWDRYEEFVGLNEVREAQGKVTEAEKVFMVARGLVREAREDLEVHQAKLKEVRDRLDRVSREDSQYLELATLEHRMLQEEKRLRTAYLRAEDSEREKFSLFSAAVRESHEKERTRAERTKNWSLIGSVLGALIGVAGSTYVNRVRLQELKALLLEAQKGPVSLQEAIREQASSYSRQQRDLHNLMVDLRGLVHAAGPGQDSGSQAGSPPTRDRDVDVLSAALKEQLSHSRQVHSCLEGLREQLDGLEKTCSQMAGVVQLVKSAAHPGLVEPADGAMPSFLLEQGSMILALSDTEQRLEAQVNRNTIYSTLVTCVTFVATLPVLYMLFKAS
UniProt Q8N7R7: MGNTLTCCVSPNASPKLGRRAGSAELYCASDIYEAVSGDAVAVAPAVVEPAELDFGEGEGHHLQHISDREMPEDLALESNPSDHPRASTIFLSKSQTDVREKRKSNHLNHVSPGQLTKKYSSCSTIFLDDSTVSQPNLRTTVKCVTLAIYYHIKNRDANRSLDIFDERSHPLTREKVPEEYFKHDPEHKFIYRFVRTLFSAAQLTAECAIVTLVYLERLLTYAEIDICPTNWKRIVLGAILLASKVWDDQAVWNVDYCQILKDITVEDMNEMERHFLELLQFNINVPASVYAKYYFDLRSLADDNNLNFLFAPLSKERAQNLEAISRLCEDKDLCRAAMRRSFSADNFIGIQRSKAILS
UniProt O95273: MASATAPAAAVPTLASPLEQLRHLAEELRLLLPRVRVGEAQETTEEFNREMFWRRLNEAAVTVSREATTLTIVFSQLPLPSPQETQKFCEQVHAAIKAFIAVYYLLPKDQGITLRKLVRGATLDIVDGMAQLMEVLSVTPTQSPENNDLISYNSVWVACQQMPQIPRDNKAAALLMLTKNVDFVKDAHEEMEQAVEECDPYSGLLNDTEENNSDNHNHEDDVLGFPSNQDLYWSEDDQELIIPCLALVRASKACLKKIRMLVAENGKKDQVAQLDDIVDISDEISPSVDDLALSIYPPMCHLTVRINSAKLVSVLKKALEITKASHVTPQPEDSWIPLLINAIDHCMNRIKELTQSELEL
UniProt Q86X55: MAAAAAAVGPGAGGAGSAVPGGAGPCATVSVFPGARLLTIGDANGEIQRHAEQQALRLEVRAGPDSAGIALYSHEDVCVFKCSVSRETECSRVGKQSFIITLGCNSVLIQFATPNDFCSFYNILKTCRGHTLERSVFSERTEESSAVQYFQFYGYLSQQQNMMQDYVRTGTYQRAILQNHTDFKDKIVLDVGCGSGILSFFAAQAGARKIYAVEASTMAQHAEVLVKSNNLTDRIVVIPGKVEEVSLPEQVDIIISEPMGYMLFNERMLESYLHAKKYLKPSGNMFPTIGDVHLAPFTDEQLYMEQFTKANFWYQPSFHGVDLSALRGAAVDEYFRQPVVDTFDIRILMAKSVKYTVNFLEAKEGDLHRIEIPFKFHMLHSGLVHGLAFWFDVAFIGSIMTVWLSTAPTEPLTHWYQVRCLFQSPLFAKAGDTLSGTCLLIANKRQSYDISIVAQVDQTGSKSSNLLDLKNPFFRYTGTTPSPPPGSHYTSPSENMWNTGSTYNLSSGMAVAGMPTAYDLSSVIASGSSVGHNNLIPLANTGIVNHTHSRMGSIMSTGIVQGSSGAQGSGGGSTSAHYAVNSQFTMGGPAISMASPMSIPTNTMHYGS
UniProt Q8IYE1: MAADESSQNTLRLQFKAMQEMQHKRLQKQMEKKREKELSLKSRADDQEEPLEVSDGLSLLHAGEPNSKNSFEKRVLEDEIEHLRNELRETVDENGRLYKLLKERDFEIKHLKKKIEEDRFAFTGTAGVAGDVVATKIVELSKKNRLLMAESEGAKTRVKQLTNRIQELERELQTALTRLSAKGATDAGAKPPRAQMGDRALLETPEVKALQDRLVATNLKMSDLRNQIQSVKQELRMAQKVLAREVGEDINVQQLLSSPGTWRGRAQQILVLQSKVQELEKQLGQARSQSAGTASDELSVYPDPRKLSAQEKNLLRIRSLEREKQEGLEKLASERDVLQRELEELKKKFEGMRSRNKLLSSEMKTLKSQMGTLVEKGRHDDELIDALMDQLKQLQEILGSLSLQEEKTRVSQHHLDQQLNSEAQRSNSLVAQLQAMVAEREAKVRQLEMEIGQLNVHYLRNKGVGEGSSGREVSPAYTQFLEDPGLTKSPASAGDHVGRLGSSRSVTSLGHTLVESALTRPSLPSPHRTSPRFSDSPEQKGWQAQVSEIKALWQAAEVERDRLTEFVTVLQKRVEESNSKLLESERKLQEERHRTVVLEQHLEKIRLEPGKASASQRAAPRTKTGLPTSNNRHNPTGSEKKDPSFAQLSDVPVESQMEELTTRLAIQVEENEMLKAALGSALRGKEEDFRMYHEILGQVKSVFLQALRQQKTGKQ

Key:
Test in all cases: log2 fold change, soluble protein after heating vs DMSO (PISA); higher = thermal stabilisation; K562 lysate, 10 uM; active = over 0.2 and 3.5 SD of the protein, either way, in both replicates (recomputed)
lapatinib = compound: CS(=O)(=O)CCNCc1ccc(-c2ccc3ncnc(Nc4ccc(OCc5cccc(F)c5)c(Cl)c4)c3c2)o1 [lapatinib]
How it was run: (§1)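 Soluble protein was defined as the supernatant remaining after 21,000xg for 90 min, following pooling of heated aliquots and adjustment to 0.5% NP-40 at 4°C. Before that, crude K562 extract at 1 mg/mL protein in PBS pH 7.4 with 1 mM MgCl2 was treated with 10 μM compound for 30 min and heated for 3 min across 48°C-58°C. Quantification used TMTpro 16plex LC-MS/MS with channel sums equalised, and values are log-two fold changes in thermal stability relative to solvent controls from duplicates.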

pictilisib = compound: CS(=O)(=O)N1CCN(Cc2cc3nc(-c4cccc5[nH]ncc45)nc(N4CCOCC4)c3s2)CC1 [pictilisib]
How it was run: as §1

crizotinib = compound: C[C@@H](Oc1cc(-c2cnn(C3CCNCC3)c2)cnc1N)c1c(Cl)ccc(F)c1Cl [crizotinib]
How it was run: as §1

[1] = compound: C[C@H](C1=CC=C(C=C1)C(=O)NC2=C3C=CNC3=NC=C2)N
How it was run: as §1

duvelisib = compound: C[C@H](Nc1ncnc2nc[nH]c12)c1cc2cccc(Cl)c2c(=O)n1-c1ccccc1 [duvelisib]
How it was run: as §1

gandotinib = compound: Cc1cc(Nc2cc(CN3CCOCC3)c3nc(C)c(Cc4ccc(Cl)cc4F)n3n2)n[nH]1 [gandotinib]
How it was run: as §1

tozasertib = compound: Cc1cc(Nc2cc(N3CCN(C)CC3)nc(Sc3ccc(NC(=O)C4CC4)cc3)n2)n[nH]1 [tozasertib]
How it was run: as §1

doramapimod = compound: Cc1ccc(-n2nc(C(C)(C)C)cc2NC(=O)Nc2ccc(OCCN3CCOCC3)c3ccccc23)cc1 [doramapimod]
How it was run: as §1

bafetinib = compound: Cc1ccc(NC(=O)c2ccc(CN3CC[C@H](N(C)C)C3)c(C(F)(F)F)c2)cc1Nc1nccc(-c2cncnc2)n1 [bafetinib]
How it was run: as §1

[2] = compound: Cc1cccc(CC(=O)N2CCc3c2ccc(-c2cn(C)c4ncnc(N)c24)c3F)n1
How it was run: as §1

nilotinib = compound: Cc1cn(-c2cc(NC(=O)c3ccc(C)c(Nc4nccc(-c5cccnc5)n4)c3)cc(C(F)(F)F)c2)cn1 [nilotinib]
How it was run: as §1

[3] = compound: Cc1nc(Nc2n[nH]c3c2CN(C(=O)N[C@H](CN(C)C)c2ccccc2)C3(C)C)c2sccc2n1
How it was run: as §1

dasatinib = compound: Cc1nc(Nc2ncc(C(=O)Nc3c(C)cccc3Cl)s2)cc(N2CCN(CCO)CC2)n1 [dasatinib]
How it was run: as §1

[4] = compound: Cc1ncc(-c2ccnc(Nc3ccc(S(C)(=O)=O)cc3)n2)n1C(C)C
How it was run: as §1

[5] = compound: Cn1cc(-c2ccc3c(c2)CCN3C(=O)Cc2cccc(C(F)(F)F)c2)c2c(N)ncnc21
How it was run: as §1

quisinostat = compound: Cn1cc(CNCC2CCN(c3ncc(C(=O)NO)cn3)CC2)c2ccccc21 [quisinostat]
How it was run: as §1

tipifarnib = compound: Cn1cncc1[C@@](N)(c1ccc(Cl)cc1)c1ccc2c(c1)c(-c1cccc(Cl)c1)cc(=O)n2C [tipifarnib]
How it was run: as §1

[6] = compound: NC(=O)Nc1cc(-c2cccc(F)c2)sc1C(=O)N[C@H]1CCCNC1
How it was run: as §1

[7] = compound: NC(=O)c1cnc(N[C@@H]2CCCC[C@@H]2N)nc1Nc1cccc(-n2nccn2)c1
How it was run: as §1

[8] = compound: NC1(c2ccc(-c3nc4ccn5c(=O)[nH]nc5c4cc3-c3ccccc3)cc2)CCC1
How it was run: as §1

Row | Target | log2 fold change (lapatinib) | log2 fold change (pictilisib) | log2 fold change (crizotinib) | log2 fold change [1] | log2 fold change (duvelisib) | log2 fold change (gandotinib) | log2 fold change (tozasertib) | log2 fold change (doramapimod) | log2 fold change (bafetinib) | log2 fold change [2] | log2 fold change (nilotinib) | log2 fold change [3] | log2 fold change (dasatinib) | log2 fold change [4] | log2 fold change [5] | log2 fold change (quisinostat) | log2 fold change (tipifarnib) | log2 fold change [6] | log2 fold change [7] | log2 fold change [8]
1 | CD58 (UniProt P19256) | inactive: 0.004 | inactive: -0.123 | inactive: 0.074 | inactive: -0.056 | inactive: 0.068 | inactive: -0.055 | inactive: 0.027 | inactive: 0.007 | inactive: -0.149 | inactive: 0.043 | inactive: -0.061 | inactive: 0.008 | inactive: 0.076 | inactive: 0.027 | inactive: 0.062 | inactive: 0.018 | inactive: 0.015 | inactive: -0.015 | inactive: 0.001 | inactive: 0.024
2 | CASP6 (UniProt P55212) | inactive: 0.024 | inactive: -0.004 | inactive: 0.009 | inactive: 0.195 | inactive: 0.003 | inactive: -0.02 | inactive: 0.022 | inactive: 0.013 | inactive: 0.054 | inactive: -0.038 | inactive: 0.018 | inactive: 0.017 | inactive: 0.005 | inactive: -0.026 | inactive: -0.001 | inactive: 0.013 | inactive: -0.027 | inactive: -0.034 | inactive: 0.003 | inactive: 0.023
3 | CCSMST1 (UniProt Q4G0I0) | inactive: -0.04 | inactive: -0.058 | inactive: -0.034 | inactive: -0.1 | inactive: -0.046 | inactive: 0.001 | inactive: -0.046 | inactive: 0.046 | inactive: -0.007 | inactive: 0.02 | inactive: 0.069 | inactive: 0.05 | inactive: -0.069 | inactive: -0.127 | inactive: 0.076 | inactive: -0.065 | inactive: 0.096 | inactive: -0.057 | inactive: 0.03 | inactive: -0.062
4 | CBWD2 (UniProt Q8IUF1) | inactive: 0.027 | inactive: 0.009 | inactive: -0.02 | inactive: 0.064 | inactive: -0.018 | inactive: -0.23 | inactive: -0.031 | inactive: 0.018 | inactive: -0.053 | inactive: 0 | inactive: 0.084 | inactive: -0.032 | inactive: -0.009 | inactive: 0.055 | inactive: -0.03 | inactive: 0.006 | inactive: 0.014 | inactive: 0.003 | inactive: 0.038 | inactive: -0.016
5 | CD151 (UniProt P48509) | inactive: 0.008 | inactive: -0.023 | inactive: -0.01 | inactive: -0.272 | inactive: 0.022 | inactive: 0.052 | inactive: -0.113 | inactive: -0.027 | inactive: 0.055 | inactive: 0.095 | inactive: -0.1 | inactive: -0.05 | inactive: 0.03 | inactive: -0.214 | inactive: 0.009 | inactive: -0.26 | inactive: -0.011 | inactive: 0.015 | inactive: 0.021 | inactive: -0.019
6 | CCT6A (UniProt P40227) | inactive: -0.01 | inactive: 0.008 | inactive: 0.026 | inactive: 0.009 | inactive: -0.004 | inactive: -0.018 | inactive: -0.012 | inactive: -0.013 | inactive: 0.013 | inactive: -0.028 | inactive: -0.003 | inactive: -0.004 | inactive: -0.001 | inactive: -0.007 | inactive: 0.001 | inactive: 0.037 | inactive: 0.014 | inactive: -0.005 | inactive: 0.003 | inactive: 0.005
7 | CBX5 (UniProt P45973) | inactive: 0.06 | inactive: 0.024 | inactive: -0.023 | inactive: -0.187 | inactive: -0.036 | inactive: 0.077 | inactive: 0.006 | inactive: 0.006 | inactive: -0.001 | inactive: 0.064 | inactive: 0.014 | inactive: 0.011 | inactive: 0.028 | inactive: 0.052 | inactive: -0.017 | inactive: -0.09 | inactive: -0.024 | inactive: 0.014 | inactive: -0.004 | inactive: 0.007
8 | CAVIN2 (UniProt O95810) | inactive: -0.028 | inactive: -0.006 | inactive: 0.022 | inactive: -0.004 | inactive: 0.022 | inactive: 0.029 | inactive: -0.003 | inactive: 0.025 | inactive: -0.001 | inactive: 0.016 | inactive: 0.038 | inactive: 0.012 | inactive: 0.016 | inactive: 0.007 | inactive: -0.029 | inactive: 0 | inactive: 0.013 | inactive: -0.008 | inactive: 0.004 | inactive: 0.024
9 | CCDC115 (UniProt Q96NT0) | inactive: 0.052 | inactive: 0.014 | inactive: -0.013 | inactive: -0.018 | inactive: -0.039 | inactive: 0.014 | inactive: -0.022 | inactive: 0.016 | inactive: 0.014 | inactive: 0.005 | inactive: -0.007 | inactive: -0.052 | inactive: -0.019 | inactive: -0.002 | inactive: 0.043 | inactive: 0.029 | inactive: -0.037 | inactive: -0.035 | inactive: 0.062 | inactive: -0.066
10 | CCDC59 (UniProt Q9P031) | inactive: 0.043 | inactive: -0.034 | inactive: 0.015 | inactive: -0.013 | inactive: 0.009 | inactive: 0.01 | inactive: 0.001 | inactive: 0.069 | inactive: -0.055 | inactive: -0.01 | inactive: -0.004 | inactive: -0.124 | inactive: 0.041 | inactive: 0.01 | inactive: -0.025 | inactive: -0.077 | inactive: 0.104 | inactive: 0.044 | inactive: -0.001 | –
11 | CD46 isoform 2 (UniProt P15529) | inactive: 0.002 | inactive: -0.005 | inactive: -0.025 | inactive: -0.01 | inactive: -0.08 | inactive: 0.086 | inactive: -0.034 | inactive: 0.063 | inactive: 0.124 | inactive: -0.003 | inactive: -0.052 | inactive: 0.011 | inactive: 0.064 | inactive: -0.046 | inactive: -0.081 | inactive: -0.071 | inactive: -0.039 | inactive: 0.058 | inactive: -0.023 | inactive: 0.014
12 | CCDC51 (UniProt Q96ER9) | inactive: -0.038 | inactive: -0.055 | inactive: -0.01 | active: 0.259 | inactive: -0.034 | active: -0.217 | inactive: 0.007 | inactive: -0.053 | inactive: -0.106 | inactive: -0.232 | inactive: -0.037 | inactive: -0.049 | inactive: -0.016 | inactive: 0.035 | inactive: -0.014 | inactive: 0.017 | inactive: -0.082 | inactive: 0.02 | inactive: -0.015 | inactive: -0.04
13 | CCNYL1 (UniProt Q8N7R7) | inactive: 0.018 | inactive: -0.012 | inactive: -0.015 | inactive: -0.201 | inactive: -0.003 | inactive: 0.085 | inactive: 0.052 | inactive: -0.004 | inactive: 0.006 | inactive: 0.067 | inactive: -0.001 | inactive: -0.033 | inactive: 0.034 | inactive: 0.043 | inactive: -0.003 | inactive: -0.078 | inactive: -0.08 | inactive: 0.008 | inactive: 0.075 | inactive: -0.006
14 | CCNDBP1 (UniProt O95273) | inactive: 0.077 | inactive: -0.041 | inactive: -0.009 | inactive: 0.138 | inactive: -0.019 | inactive: -0.062 | inactive: 0.083 | inactive: 0.024 | inactive: -0.022 | inactive: -0.092 | inactive: 0.005 | inactive: 0.009 | inactive: -0.017 | inactive: -0.013 | inactive: 0.071 | inactive: -0.02 | inactive: -0.018 | inactive: 0.055 | inactive: -0.01 | inactive: 0.014
15 | CARM1 (UniProt Q86X55) | inactive: -0.041 | inactive: -0.007 | inactive: 0.005 | inactive: -0.052 | inactive: -0.004 | inactive: 0.014 | inactive: -0.016 | inactive: 0.069 | inactive: -0.055 | inactive: 0.02 | inactive: -0.009 | inactive: 0.007 | inactive: -0.016 | inactive: 0.008 | inactive: -0.006 | inactive: -0.017 | inactive: -0.064 | inactive: 0.024 | inactive: 0 | inactive: -0.01
16 | CCDC13 (UniProt Q8IYE1) | inactive: -0.054 | inactive: -0.261 | inactive: -0.654 | inactive: -0.001 | inactive: 0.153 | inactive: -0.18 | inactive: -0.121 | inactive: -0.22 | inactive: -0.137 | inactive: 0.239 | inactive: -0.036 | inactive: 0.034 | inactive: -0.063 | inactive: 0.167 | inactive: -0.044 | inactive: -0.831 | inactive: 0.101 | inactive: -0.195 | inactive: 0 | –

Looked up one by one from the entries so far (two):
Row | Target | log2 fold change (lapatinib) | log2 fold change (pictilisib) | log2 fold change (crizotinib) | log2 fold change [1] | log2 fold change (duvelisib) | log2 fold change (gandotinib) | log2 fold change (tozasertib) | log2 fold change (doramapimod) | log2 fold change (bafetinib) | log2 fold change [2] | log2 fold change (nilotinib) | log2 fold change [3] | log2 fold change (dasatinib) | log2 fold change [4] | log2 fold change [5] | log2 fold change (quisinostat) | log2 fold change (tipifarnib) | log2 fold change [6] | log2 fold change [7] | log2 fold change [8]
1 | CD58 (UniProt P19256) | inactive: 0.004 | inactive: -0.123 | inactive: 0.074 | inactive: -0.056 | inactive: 0.068 | inactive: -0.055 | inactive: 0.027 | inactive: 0.007 | inactive: -0.149 | inactive: 0.043 | inactive: -0.061 | inactive: 0.008 | inactive: 0.076 | inactive: 0.027 | inactive: 0.062 | inactive: 0.018 | inactive: 0.015 | inactive: -0.015 | inactive: 0.001 | inactive: 0.024
6 | CCT6A (UniProt P40227) | inactive: -0.01 | inactive: 0.008 | inactive: 0.026 | inactive: 0.009 | inactive: -0.004 | inactive: -0.018 | inactive: -0.012 | inactive: -0.013 | inactive: 0.013 | inactive: -0.028 | inactive: -0.003 | inactive: -0.004 | inactive: -0.001 | inactive: -0.007 | inactive: 0.001 | inactive: 0.037 | inactive: 0.014 | inactive: -0.005 | inactive: 0.003 | inactive: 0.005
